Measurements from patent US20240376151A1, “STAPLED PEPTIDES AND METHODS THEREOF” (FOG PHARMACEUTICALS, INC., priority 2022, published 2024).
No constants are given. Whether binding was seen depends on the method and setting. Some binding calls cover weakened binding; strength is not graded here.

Amino acid sequences for entries named in this document (tags omitted). A change or cut given only in a name is not applied to a line headed by its entry.
UniProt Q96EP0: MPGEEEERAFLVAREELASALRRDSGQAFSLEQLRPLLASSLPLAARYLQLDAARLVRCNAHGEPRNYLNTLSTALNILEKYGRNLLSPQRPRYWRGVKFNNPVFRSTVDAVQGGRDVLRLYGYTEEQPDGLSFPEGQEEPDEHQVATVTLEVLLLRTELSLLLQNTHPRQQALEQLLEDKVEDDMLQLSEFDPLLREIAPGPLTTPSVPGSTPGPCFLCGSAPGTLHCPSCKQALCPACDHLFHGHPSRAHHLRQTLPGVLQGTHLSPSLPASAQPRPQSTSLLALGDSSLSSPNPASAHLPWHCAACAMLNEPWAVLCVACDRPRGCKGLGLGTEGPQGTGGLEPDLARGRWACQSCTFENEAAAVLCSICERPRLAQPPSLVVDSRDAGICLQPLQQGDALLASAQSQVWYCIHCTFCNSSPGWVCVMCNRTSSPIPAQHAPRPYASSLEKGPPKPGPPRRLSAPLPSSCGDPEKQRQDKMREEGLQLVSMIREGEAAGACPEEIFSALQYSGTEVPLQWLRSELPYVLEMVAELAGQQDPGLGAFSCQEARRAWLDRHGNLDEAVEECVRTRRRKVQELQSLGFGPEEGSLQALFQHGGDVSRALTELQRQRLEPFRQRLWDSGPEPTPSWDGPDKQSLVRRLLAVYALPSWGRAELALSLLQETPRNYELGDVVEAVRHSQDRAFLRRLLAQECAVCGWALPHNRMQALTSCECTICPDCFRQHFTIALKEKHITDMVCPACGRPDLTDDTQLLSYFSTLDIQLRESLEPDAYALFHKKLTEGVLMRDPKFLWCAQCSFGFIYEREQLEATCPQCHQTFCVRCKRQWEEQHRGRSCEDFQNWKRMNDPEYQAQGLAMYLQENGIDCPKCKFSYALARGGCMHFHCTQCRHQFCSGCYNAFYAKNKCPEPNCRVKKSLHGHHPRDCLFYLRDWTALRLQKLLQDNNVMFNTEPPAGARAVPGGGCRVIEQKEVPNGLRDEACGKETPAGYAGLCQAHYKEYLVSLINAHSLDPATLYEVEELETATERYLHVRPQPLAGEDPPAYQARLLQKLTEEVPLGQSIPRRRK

How the values were obtained:
[1] = target: RNF31 UBA domain (residues 480-639) (Homo sapiens (Human)) (UniProt Q96EP0); experiment: competition FP against 5FAM-FP06655 (1.m42) on RNF31 UBA
[2] = target: RNF31 UBA domain (residues 480-639) (Homo sapiens (Human)) (UniProt Q96EP0); experiment: competition FP

binding [1]: binds
binding [2]: binds
B1: Sharpin/SIPL1 UBL domain, unlabeled recombinant protein (protein, UniProt Q9H0F6 206-309, looked up)
chain: SVQLQEACFPPGPIRLQVTLEDAASAASAASSAHVALQVHPHCTVAALQEQVFSELGFPPAVQRWVIGRCLCVPERSLASYGVRQDGDPAFLYLLSAPREAPAT
